Results as given in the supplement of paper PMC3334620.
Over roughly 33,000 sequences, “E-score (-0.5 to 0.5)” has its median near -8e-05; the highest 2% begin near 0.23. This is one part of the list.

Molecular target: T1, Nrg2 (UniProt P38082)
T1 sequence: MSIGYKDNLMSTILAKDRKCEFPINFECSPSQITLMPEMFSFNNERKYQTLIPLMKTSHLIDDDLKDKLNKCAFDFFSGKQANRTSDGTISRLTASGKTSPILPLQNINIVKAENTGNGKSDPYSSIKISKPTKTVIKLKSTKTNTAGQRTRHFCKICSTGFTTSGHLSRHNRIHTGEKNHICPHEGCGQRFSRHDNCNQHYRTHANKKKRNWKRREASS
Assay: PBM E-score (8-mer binding enrichment) (E-score (-0.5 to 0.5)); higher = stronger / more preferred TF binding
Settings: protein concentration: 100 nM; construct: GST-full length
Summary of the method: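 The E-score, a modified Wilcoxon-Mann-Whitney statistic, was computed by the Universal PBM Analysis Suite for every ungapped eight-base word pooled with its reverse complement. Scans behind it were normalised with masliner after bound GST-tagged yeast transcription factors were detected with fluorescent anti-GST. The proteins, at about 100-200 nM, had been applied to universal all-10-mer Agilent arrays made double-stranded by primer extension.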

Sequence	PBM E-score
ATGCGAGC	0.0133
ATACAAAA	0.218
ACACTTTC	0.0771
GCACGTAC	-0.125
ACAAAGAC	-0.0259
CTCTAAGC	0.0189
GCTGTGTA	-0.051
CATAGGGA	0.0275
CCCCCTCA	-0.379
CCGAATAG	-0.0206
ACCTAGGC	-0.182
CATCAGTC	-0.0546
ACGTGGAT	-0.0278
ACGCAGTG	-0.256
ACCCCAAC	0.0849
ATGTACAA	0.0611
ACGGTACC	0.051
ACAATATA	0.227
CTCCAGTA	-0.0168
CTATGCAA	0.075
CGCTCCTC	-0.334
ACTGCCAT	0.102
TAACCAGA	-0.104
ACCGGGAT	0.00356
AGTCATAC	-0.0325

Sequence	PBM E-score
ACCCTACG	0.0347
CGTTCCGA	-0.143
GCACATCC	-0.0672
GGGAGGCA	-0.214
ATCCTCTC	-0.0127
GTCGCAAA	0.0589
CGTACCCC	0.0787
AGGCTGTA	-0.0917
ACAAAGAT	0.0695
ACATTATC	0.078
CTAGGCAG	-0.159
AATTCCTA	0.0693
GAGTCACA	0.0275
ACACCGGT	-0.112
ACATGGAA	0.0641
CCACAACA	-0.135
CGACCAGC	0.023
GGTGCATA	-0.0478
CTGTAAGC	0.0454
CAAGATCG	-0.0622
CTGTGGAA	0.123
CACTGGGC	-0.198
GCTAATCC	0.0447
ATGTAATA	0.13
GCGGACCA	0.189

Sequence	PBM E-score
TTGAGAAA	0.113
CAAGAGCC	0.061
CTTGAACA	-0.018
AAGCCGGA	0.202
AACGTCGC	-0.0096
CAGGGGAC	-0.00647
CGATGGCG	0.017
AATCCGGT	0.0653
TATCTGCA	-0.0215
ACCTCCCG	-0.177
AAATTCTT	-0.0189
GGCTCCTA	-0.0856
TACAAGGA	-0.123
CTTCACCC	0.0793
ACGTGCAA	0.139
GTTACGAA	0.0759
GAAACCAC	0.0608
CAGCCCGC	-0.269
CAAACACG	0.087
GACTAGAC	-0.112
GCCGTTCC	-0.102
TGCGCTAA	0.0259
CAGCAAAG	0.018
TATCTTGA	-0.0394
ATTGGCAG	-0.164

Sequence	PBM E-score
ACGCTGCC	-0.169
GTCTCGAA	-0.0529
AGTCTCTC	-0.163
AAACAATA	0.261
CCTAAGCC	-0.283
CAAACCAG	-0.128
CCCGAACC	-0.0844
GGTAACAC	0.0111
GGTCCTGA	0.112
CAGTGGTC	-0.176
CCGGTGCG	-0.127
CAGTCACG	-0.186
CCTTATAC	0.0966
CCTGGTAG	0.0165
CACACGCA	-0.0633
CACACCGG	-0.0367
CTGCTGGC	-0.299
AAATATTT	0.106
ACCGTCCG	-0.238
CCACTCTA	0.128
GACACTCA	-0.152
AATTTTCA	0.0418
ACAGCTTG	-0.0272
CTGCCAGA	-0.123
ACTCCACT	-0.0926

42 neighbouring entries out of the list so far, for reference:
Sequence	PBM E-score
AATCCGGT	0.0653
TATCTGCA	-0.0215
ACCTCCCG	-0.177
AAATTCTT	-0.0189
GGCTCCTA	-0.0856
TACAAGGA	-0.123
CTTCACCC	0.0793
ACGTGCAA	0.139
GTTACGAA	0.0759
GAAACCAC	0.0608
CAGCCCGC	-0.269
CAAACACG	0.087
GACTAGAC	-0.112
GCCGTTCC	-0.102
TGCGCTAA	0.0259
CAGCAAAG	0.018
TATCTTGA	-0.0394
ATTGGCAG	-0.164
ACGCTGCC	-0.169
GTCTCGAA	-0.0529
AGTCTCTC	-0.163
AAACAATA	0.261
CCTAAGCC	-0.283
CAAACCAG	-0.128
CCCGAACC	-0.0844
GGTAACAC	0.0111
GGTCCTGA	0.112
CAGTGGTC	-0.176
CCGGTGCG	-0.127
CAGTCACG	-0.186
CCTTATAC	0.0966
CCTGGTAG	0.0165
CACACGCA	-0.0633
CACACCGG	-0.0367
CTGCTGGC	-0.299
AAATATTT	0.106
ACCGTCCG	-0.238
CCACTCTA	0.128
GACACTCA	-0.152
AATTTTCA	0.0418
ACAGCTTG	-0.0272
CTGCCAGA	-0.123

(list continues)

Sequence	PBM E-score
TAATGCGA	0.072
CTTTCACC	-0.0112
AGTACACC	0.00106
CGCAGCTA	-0.0329
ATATACCG	0.204
GACGCAAA	0.113
GCTGACTA	-0.101
ACTATGCA	0.17
TAGCTTAA	0.0129
GAAGCGCC	0.06
TAATATAA	0.302
AATGAGTG	0.203
ATGCGGTC	0.12
CTGATCGC	-0.0369
CCATGCGA	0.0611
CCCGCCCC	0.193
ATCACTAA	-0.0841
AAGAATCC	0.0617
CCTGCTAG	-0.214
AAGGATGC	-0.0428
AGGCATTC	-0.115
ACATCTCG	0.0593
GAGTACCA	0.142
TATCGTGA	0.0913
AAACACCT	-7e-05

Sequence	PBM E-score
AGTTCCAT	0.157
AGGTGTAC	-0.145
ACGCCCAC	-0.0361
GGACTACC	-0.229
AAGATGTG	0.0799
GGCGTCTA	-0.0534
TTAGACAA	0.00355
GGTTGTGA	0.0533
AAGAAAAA	-0.0197
ATGACCTG	-0.124
GCGCTGAA	-0.219
ATTACTGA	-0.0487
CCTCAATA	-0.0783
CTACTGAG	-0.00592
TCCAAAGA	-0.065
CGTTGCGA	-0.0989
ACGCACCG	-0.114
GATGGATA	-0.0483
ACCTTACT	0.0162
TAAGGCGA	-0.0249
AACAGAGT	0.0421
GTACGTAA	-0.169
AATGCGAA	-0.0243
GTTATAAC	-0.0643
ATAACTCG	0.1

Sequence	PBM E-score
CCCAAGAA	0.0831
AATCCAAT	0.174
GCCATAAA	-0.0219
GGTAAACC	-0.102
GTCACGCA	0.0867
CACCACTC	0.0931
ACTCACTC	0.0563
CAGCAAGC	-0.226
ACCACCGG	-0.144
AATTGAAC	-0.129
GAGCCCCA	-0.15
AGCGGCAA	0.00952
ACTATAGA	0.124
CCATACAG	-0.053
ACCCCTGG	0.0828
AATCCCTC	-0.0866
AGCGCGCA	0.205
CGAGCTTC	0.143
ATGTCTCG	0.016
AGAACCTA	-0.0297
CCATACTC	-0.0157
AAGTTGAA	0.0452
CATTTGCA	0.0564
ACCATCTA	-0.0677
GCCTATGA	-0.194

Sequence	PBM E-score
AGTTCAAG	0.182
AGATTCCT	-0.111
GCCTATAC	-0.229
CAGCGAGG	0.0395
AAACGATT	0.222
GCATCTGA	-0.169
CAAGTAAG	-0.0208
ACGAACCA	0.235
CCATTTGC	-0.0555
CGGCAGAA	0.154
GGTCACGA	0.0402
TGGAACCA	0.0904
ATAACCGA	-0.0269
CAAGGTGA	0.119
ATATGTCA	0.0889
GCAGTGCC	-0.171
ATGCGTAC	0.0134
TCACAAGA	0.0581
CGCCGAAC	0.00296
GTTTGCGA	0.0803
CGCAGCCA	-0.162
AGTTGGGA	0.0703
ATAGCCAT	0.0469
GAGTGAGA	0.0435
ATAGCTCG	-0.0336

Sequence	PBM E-score
ACGACACA	0.0824
CTACCAGA	-0.0347
TGTAATAA	0.141
CGCGTTCC	-0.00864
ATTCGACC	-0.0786
AACCTGTC	-0.0794
CTGATGAA	0.0121
CCCATTAA	-0.0676
CCACGCGG	-0.105
GAGTGGGA	-0.14
CATGGAAA	0.092
ACAGCAGG	0.0363
AATCATCA	0.171
ATGACGGA	-0.0207
GCTATTTA	0.0652
GAAGCATA	-0.107
ACGCACTG	-0.0871
AAAAGACA	0.112
ACTCTGCC	-0.142
